Binding data for one molecule are collected here from doi:10.1101/2023.05.28.542599.

No constants are given. Whether binding was seen depends on the method and setting. Binding seen in cells or lysates may run through a third protein. A yes stands for co-enrichment or nearness to the bait. Other partners may have been found.

The assay addresses TgTBC9^3xHA (Toxoplasma gondii). The assay can be described thus: affinity purification with mass spectrometry.

B1: Rab11B (protein, UniProt Q7Z158 1-226)
chain: MAGGSEDYDHLYKVILVGDATVGKTHLLSRYIRGTLPKSPKATIGVEFATRTVPLAVGGTVKAQIWDTAGQERYRSITSAHYRRAVGALLVYDVTRKSTFLNASKWLEELRQNSEPDIVIMMVGNKLDLVEKDPTARDVPYELAAKFAQANGLYFSEASAVTAFNVKHIFEHLLQEIYNHRTQGEEFSGRANGADAYRDAQALGGVRLAANANMYGRNPQNLSCCG
Consider B1, for which the binding entry was “binds”.
